Reference: US6602487B1, “Methods and tests for producing and for inhibiting coronary artery vasospasms” (Dimera Incorporated, priority 1997, dated 2003)
Several values for one entry are separate records, joined by “and”; a condition that tells them apart may be missing. Identical values can stand only once. This continues a long series; more values of the same kind are listed elsewhere.

Test: Progesterone serum levels after topical ProGest cream in menopausal or postmenopausal women
Format: in vivo, human
Conditions: topical ProGest cream 2 ml, per patient
Procedure: An open label, controlled study was carried out in six healthy menopausal or postmenopausal women using no over-the-counter or prescription medications, medical foods or dietary supplements which would influence progesterone levels. Menopausal or postmenopausal status was determined by clinical methods. The inclusion criteria were low estrogen levels (less than or equal to 25 picograms per ml); non-use of progesterone for two weeks prior to the beginning of the study, and four weeks if medroxyprogesterone acetate was used; a body mass index less than 30; age between 40 and 65; non-smoker; at least six months after menopause (last bleeding); normal mammogram and pap smear within the past year; and reasonable reliability and client compliance. […] The cream was to be applied in 2 ml amounts on calendar days 2-15 at 8 a.m. Applications were increased to a second 2 ml application at 8 p.m. on calendar days 16-30. In addition, estrogen was applied as a […] patch. The patch used was Vivelle®, Ciba (now Novartis), Summit, N.J. The Vivelle® patch (0.05 mg/day) was applied on calendar days 0, 3, 7, 10, 14, 17, 21, 24 and 28.
Estrogen and progesterone serum levels were determined by chemiluminescence and were conducted on calendar days 2, 9, 16, 23, and 30 at times indicated.

- Progesterone Levels (Week 2, 24 H): 1.5 Nanograms/ml
Structure (SMILES): CC(=O)[C@H]1CC[C@H]2[C@@H]3CCC4=CC(=O)CC[C@]4(C)[C@H]3CC[C@]12C [P, progesterone]
- Progesterone Levels (Week 0, 1/2 H): 0.69 Nanograms/ml and 0.47 Nanograms/ml and 0.41 Nanograms/ml and 1.11 Nanograms/ml and 1.5 Nanograms/ml
- Progesterone Levels (Week 0, 1 H): 0.59 Nanograms/ml and 0.52 Nanograms/ml and 0.53 Nanograms/ml and 1 Nanograms/ml and 1.4 Nanograms/ml
- Progesterone Levels (Week 0, 2 H): 0.71 Nanograms/ml and 0.68 Nanograms/ml and 0.61 Nanograms/ml and 1.3 Nanograms/ml and 3.1 Nanograms/ml
- Progesterone Levels (Week 0, 3 H): 2.1 Nanograms/ml and 0.84 Nanograms/ml and 0.57 Nanograms/ml and 1.3 Nanograms/ml and 5.6 Nanograms/ml
- Progesterone Levels (Week 0, 4 H): 0.46 Nanograms/ml and 0.75 Nanograms/ml and 0.92 Nanograms/ml and 1.2 Nanograms/ml and 3.8 Nanograms/ml
- Progesterone Levels (Week 0, 6 H): 0.61 Nanograms/ml and 2.9 Nanograms/ml and 1 Nanograms/ml and 1.3 Nanograms/ml and 1.8 Nanograms/ml
- Progesterone Levels (Week 0, 12 H): 0.8 Nanograms/ml and 1.7 Nanograms/ml and 1.3 Nanograms/ml and 2.2 Nanograms/ml
- Progesterone Levels (Week 3, 0 H): 0.91 Nanograms/ml and 1.5 Nanograms/ml and 1.7 Nanograms/ml and 2.2 Nanograms/ml and 2.6 Nanograms/ml and 2.4 Nanograms/ml
- Progesterone Levels (Week 3, 1 H): 0.79 Nanograms/ml and 0.78 Nanograms/ml and 1.2 Nanograms/ml and 2.1 Nanograms/ml and 6.9 Nanograms/ml and 1.6 Nanograms/ml
- Progesterone Levels (Week 3, 2 H): 0.74 Nanograms/ml and 2.1 Nanograms/ml and 2 Nanograms/ml (2×) and 1.6 Nanograms/ml and 7.1 Nanograms/ml
- Progesterone Levels (Week 3, 4 H): 1.5 Nanograms/ml and 5.6 Nanograms/ml and 1.4 Nanograms/ml and 1.6 Nanograms/ml (2×) and 6.1 Nanograms/ml
- Progesterone Levels (Week 3, 6 H): 0.95 Nanograms/ml and 3.7 Nanograms/ml and 1.1 Nanograms/ml and 2.4 Nanograms/ml and 3 Nanograms/ml and 3.8 Nanograms/ml
- Progesterone Levels (Week 3, 8 H): 0.73 Nanograms/ml and 4.1 Nanograms/ml and 1.1 Nanograms/ml and 1.7 Nanograms/ml and 3.8 Nanograms/ml and 2.1 Nanograms/ml
- Progesterone Levels (Week 3, 12 H): 0.63 Nanograms/ml and 1.2 Nanograms/ml and 1.5 Nanograms/ml and 2.1 Nanograms/ml and 1.8 Nanograms/ml and 2.7 Nanograms/ml
- Progesterone Levels (Week 3, 24 H): 0.47 Nanograms/ml and 1.3 Nanograms/ml and 1 Nanograms/ml and 1.7 Nanograms/ml and 4.4 Nanograms/ml and 4.5 Nanograms/ml
- Progesterone Levels (Week 4, 0 H): 0.78 Nanograms/ml and 2 Nanograms/ml and 2.2 Nanograms/ml and 2.1 Nanograms/ml (2×) and 1.9 Nanograms/ml
- Progesterone Levels (Week 4, 1 H): 4.6 Nanograms/ml and 1.3 Nanograms/ml and 1.5 Nanograms/ml (2×) and 3.5 Nanograms/ml and 2.8 Nanograms/ml
- Progesterone Levels (Week 4, 2 H): 1.2 Nanograms/ml and 2.7 Nanograms/ml and 2.2 Nanograms/ml and 1.5 Nanograms/ml and 2 Nanograms/ml and 4.2 Nanograms/ml
- Progesterone Levels (Week 4, 4 H): 0.97 Nanograms/ml and 4.5 Nanograms/ml and 3 Nanograms/ml and 1.8 Nanograms/ml and 4 Nanograms/ml and 3.1 Nanograms/ml
- Progesterone Levels (Week 4, 6 H): 1.1 Nanograms/ml and 2.7 Nanograms/ml (2×) and 1.5 Nanograms/ml and 2.4 Nanograms/ml
- Progesterone Levels (Week 4, 8 H): 1.5 Nanograms/ml and 1.3 Nanograms/ml and 1.1 Nanograms/ml and 2.7 Nanograms/ml and 3.8 Nanograms/ml and 3.7 Nanograms/ml
- Progesterone Levels (Week 4, 12 H): 1.3 Nanograms/ml and 3.4 Nanograms/ml and 1.7 Nanograms/ml and 2.1 Nanograms/ml (2×) and 2.8 Nanograms/ml
- Progesterone Levels (Week 4, 24 H): 1.6 Nanograms/ml and 2.4 Nanograms/ml and 1.4 Nanograms/ml and 2 Nanograms/ml and 5.9 Nanograms/ml and 2.3 Nanograms/ml
